Assay results from PubChem BioAssay AID330 (DTP/NCI, 2004).
The list is a part of this screen's results and no random one: it is rich in T/C values a quarter to a half above the control, in often repeated tests (any T/C) and in doses without a T/C. Further doses and runs are listed elsewhere. T/C gives the treated animals as a percentage of the vehicle group. Some entries give survivors of the animals treated and no T/C: the source holds a T/C of zero for them, seemingly a mark for toxic or unscored doses. Some survivor counts are full or nearly so, which does not show that the dose was tolerated: the source hardly ever lists a survival T/C far under the control, and the zero likely stands for such cases as well. Survivors were counted at the toxicity check, usually on the fifth day, unless a day is given; later deaths do not show. Schedules are NCI's codes, read here as Q, the interval in days (D) or hours (H), X, the number of doses. Some doses were run more than once; the results are listed from low to high. For survival time, the PubChem record calls one and a half times the control and up active, and a quarter to a half above the control has no call in these data; cut-offs in other NCI protocols can differ.

System: P388 leukemia ip, CD2F1 mice, survival T/C
Assay: NCI In Vivo Anticancer Drug Screen. Data for tumor model P388 Leukemia (intraperitoneal) in CD2F1 (CDF1) mice
Settings: T/C endpoint: median survival time, higher T/C = longer survival
[1] = dose: 200.0 mg/kg/injection, schedule: Q01DX009 (ip), vehicle: saline with Tween-80
[2] = dose: 50.0 mg/kg/injection, schedule: Q01DX009 (ip), vehicle: saline with Tween-80
[3] = dose: 100.0 mg/kg/injection, schedule: Q01DX009 (ip), vehicle: saline with Tween-80
[4] = dose: 120.0 mg/kg/injection, schedule: Q01DX005 (ip), vehicle: Klucel (hydroxypropylcellulose) (HPC)
[5] = dose: 240.0 mg/kg/injection, schedule: Q01DX005 (ip), vehicle: Klucel (hydroxypropylcellulose) (HPC)
[6] = dose: 240.0 mg/kg/injection, schedule: Q01DX005 (ip), vehicle: Klucel + Tween-80
[7] = dose: 15.0 micrograms/kg/injection, schedule: Q01DX005 (ip), vehicle: saline + alcohol
[8] = dose: 240.0 mg/kg/injection, schedule: Q01DX005 (ip), vehicle: saline
[9] = dose: 12.5 mg/kg/injection, schedule: Q01DX009 (ip), vehicle: saline with Tween-80
[10] = dose: 50.0 mg/kg/injection, schedule: Q01DX005 (ip), vehicle: Klucel (hydroxypropylcellulose) (HPC)
[11] = dose: 100.0 mg/kg/injection, schedule: Q01DX005 (ip), vehicle: Klucel (hydroxypropylcellulose) (HPC)
[12] = dose: 200.0 mg/kg/injection, schedule: Q01DX005 (ip), vehicle: Klucel (hydroxypropylcellulose) (HPC)

Q: `CNC(=O)OCc1c(COC(=O)NC)c(-c2ccc(S(C)(=O)=O)cc2)n(C)c1C` was tested. Which T/C (dose: 12.5 mg/kg/injection, schedule: Q01DX009 (ip), vehicle: distilled water + Tween-80) did it give?
A: 136 % of control

Q: And the T/C (dose: 25.0 mg/kg/injection, schedule: Q01DX009 (ip), vehicle: distilled water + Tween-80)?
A: 130 and 144 % of control

Q: What about the T/C (dose: 50.0 mg/kg/injection, schedule: Q01DX009 (ip), vehicle: distilled water + Tween-80) of the same compound?
A: 139 % of control

Q: What about the survivor count (dose: 200.0 mg/kg/injection, schedule: Q01DX009 (ip), vehicle: distilled water + Tween-80) of the same compound?
A: 2 of 6

Q: How did the survivor count (dose: 400.0 mg/kg/injection, schedule: Q04DX003 (ip), vehicle: saline with Tween-80) turn out when `COc1ccc(NC(N)=S)cc1OC` was run?
A: 4 of 6

Q: `[Cl][Hg][c]1ccccc1N=Nc1ccccc1I` was tested. Which survivor count [1] did it give?
A: 6 of 6

Q: For `C=Cc1cc[n+](CC(=O)c2ccc(-c3ccccc3)cc2)cc1`, which survivor count (dose: 100.0 mg/kg/injection, schedule: Q01DX009 (ip), vehicle: Klucel (hydroxypropylcellulose) (HPC)) is on record?
A: 0 of 6

Q: Which survivor count [2] does the source give for `CCNCc1c(C)nc2ccc(N(C)C)cc2c1Cl` here?
A: 1 of 6

Q: What about the survivor count [3] of the same compound?
A: 0 of 6

Q: And the survivor count [1]?
A: 0 of 6

Q: Which survivor count [2] does the source give for `OC(c1cc2c(Cl)cc(Cl)cc2c2cc(C(F)(F)F)ccc12)C1CCCCN1` (configuration not stated) here?
A: 5 of 6

Q: What about the survivor count [3] of the same compound?
A: 1 of 6

Q: What about the survivor count [1] of the same compound?
A: 0 of 6

Q: With `COc1ccc2c(c1)-c1nn(CCO)c(-c3cccnc3)c1CC2` as the compound, how does the survivor count (dose: 400.0 mg/kg/injection, schedule: Q04DX002 (ip), vehicle: DMSO) read?
A: 0 of 4

Q: Which T/C (dose: 30.0 mg/kg/injection, schedule: Q01DX005 (ip), vehicle: Klucel (hydroxypropylcellulose) (HPC)) does the source give for `CCc1nc(N)nc(N)c1-c1ccc(NC(C)c2ccccc2)c([N+](=O)[O-])c1` (configuration not stated) here?
A: 131 and 132 % of control

Q: And the survivor count (dose: 60.0 mg/kg/injection, schedule: Q01DX005 (ip), vehicle: Klucel (hydroxypropylcellulose) (HPC))?
A: 0 of 6

Q: What about the survivor count [4] of the same compound?
A: 0 of 6

Q: And the survivor count [5]?
A: 0 of 6

Q: Which survivor count (dose: 200.0 mg/kg/injection, schedule: Q01DX009 (ip), vehicle: Klucel (hydroxypropylcellulose) (HPC)) does the source give for `CN1C(=O)Cn2c(n[nH]c(=O)c2=O)-c2cc(Cl)ccc21` here?
A: 4 of 6

Q: Which survivor count [6] does the source give for `CCOC(=O)c1cnc2cc3c(cc2c1Nc1ccc2c(c1)OCO2)OCO3` here?
A: 3 of 6

Q: For `CC(C)c1ccc2nc3ccc(C(=O)NCCN(C)C)cn3c(=O)c2c1`, which survivor count [5] is on record?
A: 2 of 6

Q: For `COc1cccc(OC)c1OCCN`, which survivor count (dose: 200.0 mg/kg/injection, schedule: Q01DX009 (ip), vehicle: saline) is on record?
A: 0 of 6

Q: What does the source list for `COc1cc2c(cc1OC)-c1cc3cc(OC)c(OC)cc3c(C)[n+]1CC2` (tested in a mixture with another compound)?
A: T/C (dose: 25.0 mg/kg/injection, schedule: Q01DX009 (ip), vehicle: water): 125 % of control; T/C (dose: 50.0 mg/kg/injection, schedule: Q01DX009 (ip), vehicle: water): 135 % of control; survivor count (dose: 100.0 mg/kg/injection, schedule: Q01DX009 (ip), vehicle: water): 5 of 6

Q: Which survivor count [1] does the source give for `O=C(Nc1ccc(Cl)cc1)OCC12COCN1COC2` here?
A: 3 of 6

Q: Which results are given for `ClC(Cl)(Cl)CN1CCCCC1Cc1ccccc1` (configuration not stated)?
A: survivor count [4]: 0 of 6; survivor count [5]: 0 of 6

Q: Which results are given for `CN1CCCC2Cc3ccccc3CC21` (configuration not stated)?
A: survivor count (dose: 200.0 mg/kg/injection, schedule: Q04DX002 (ip), vehicle: Klucel (hydroxypropylcellulose) (HPC)): 5 of 6; survivor count (dose: 400.0 mg/kg/injection, schedule: Q04DX002 (ip), vehicle: Klucel (hydroxypropylcellulose) (HPC)): 5 of 6

Q: Which results are given for `O=c1[nH]c2c([N+](=O)[O-])cccc2nc1/C=C(\O)c1cccc([N+](=O)[O-])c1`?
A: survivor count (dose: 60.0 mg/kg/injection, schedule: Q01DX005 (ip), vehicle: Klucel + Tween-80): 6 of 6; survivor count (dose: 120.0 mg/kg/injection, schedule: Q01DX005 (ip), vehicle: Klucel + Tween-80): 5 of 6; survivor count [6]: 1 of 6

Q: With `C=C1C(O)C2OC3(CCC(/C=C/C(C)C4CC5(C)SC5C5(OC(CC(C)(O)C(=O)O)CCC5O)O4)O3)CCC2OC1C(O)CC(C)C1OC2(CCCCO2)CCC1C` (configuration not stated) as the compound, how does the T/C (dose: 7.5 micrograms/kg/injection, schedule: Q01DX005 (ip), vehicle: saline + alcohol) read?
A: 126 % of control

Q: What about the T/C [7] of the same compound?
A: 125 % of control

Q: And the survivor count [7]?
A: 5 of 5

Q: What about the survivor count (dose: 30.0 micrograms/kg/injection, schedule: Q01DX005 (ip), vehicle: saline + alcohol) of the same compound?
A: 0 of 5

Q: What about the survivor count (dose: 60.0 micrograms/kg/injection, schedule: Q01DX005 (ip), vehicle: saline + alcohol) of the same compound?
A: 0 of 5

Q: With `OC1CN(Cc2ccccc2)C[C@@H]1O` (some centres not stated) as the compound, how does the survivor count [8] read?
A: 3 of 6

Q: With `O=C1OCCc2c1[nH]c1ccccc21` as the compound, how does the survivor count (dose: 400.0 mg/kg/injection, schedule: Q04DX002 (ip), vehicle: saline with Tween-80) read?
A: 0 of 6

Q: For `Cc1cc(NC(=O)CCc2ccc(N3C(N)=NC(N)=NC3(C)C)cc2)ccc1S(=O)(=O)F`, which T/C (dose: 3.0 mg/kg/injection, schedule: Q01DX009 (ip), vehicle: saline sonified) is on record?
A: 127 % of control

Q: And the T/C (dose: 3.13 mg/kg/injection, schedule: Q01DX009 (ip), vehicle: saline with Tween-80)?
A: 136 % of control

Q: What about the T/C (dose: 6.0 mg/kg/injection, schedule: Q01DX009 (ip), vehicle: saline sonified) of the same compound?
A: 140 % of control

Q: What about the T/C (dose: 6.25 mg/kg/injection, schedule: Q01DX009 (ip), vehicle: saline with Tween-80) of the same compound?
A: 145 % of control

Q: And the T/C [9]?
A: 127 and 145 % of control

Q: And the T/C (dose: 25.0 mg/kg/injection, schedule: Q01DX009 (ip), vehicle: saline with Tween-80)?
A: 145 % of control

Q: And the T/C [2]?
A: 140 % of control

Q: What does the source list for `NS(=O)(=O)c1ccc(Nc2c3ccccc3nc3c([N+](=O)[O-])cccc23)cc1`?
A: survivor count (dose: 60.0 mg/kg/injection, schedule: Q01DX005 (ip), vehicle: saline with Tween-80): 6 of 6; survivor count (dose: 120.0 mg/kg/injection, schedule: Q01DX005 (ip), vehicle: saline with Tween-80): 6 of 6

Q: Which survivor count [10] does the source give for `COCCCOC(=O)NCCCCC([NH-])C(=O)O.COCCCOC(=O)NCCCCC([NH-])C(=O)O.[Cu+2]` (configuration not stated) here?
A: 0 of 6

Q: And the survivor count [11]?
A: 0 of 6

Q: And the survivor count [12]?
A: 0 of 6

Q: For `CCCNC(=NC)c1ccc(NC(=O)c2ccc(C(=O)Nc3ccc(C(=NC)NCCC)cc3)cc2)cc1`, which T/C (dose: 8.0 mg/kg/injection, schedule: Q01DX010 (ip), vehicle: saline) is on record?
A: 131 % of control

Q: And the T/C (dose: 12.0 mg/kg/injection, schedule: Q01DX010 (ip), vehicle: saline)?
A: 131 % of control

Q: How did the survivor count [10] turn out when `COc1ccc(Cc2cc(N=NC(N)=O)c(C)cc2O)cc1` was run?
A: 6 of 6

Q: And the survivor count [11]?
A: 6 of 6

Q: What about the survivor count [12] of the same compound?
A: 6 of 6

Q: How did the survivor count [12] turn out when `Cc1cccc(Nc2nc(C)nc3[nH]cc(C)c23)c1` was run?
A: 1 of 6

Q: For `CC(=O)OCN(C)N=Nc1ccc(C(C)=O)cc1`, which survivor count (dose: 480.0 mg/kg/injection, schedule: Q01DX005 (ip), vehicle: Klucel (hydroxypropylcellulose) (HPC)) is on record?
A: 0 of 6

Q: `CN(c1ccccc1)c1c2c(oc(=O)c1Cl)-c1ccccc1SC2` was tested. Which survivor count [9] did it give?
A: 6 of 6

Q: And the survivor count [2]?
A: 6 of 6

Q: And the survivor count [3]?
A: 6 of 6

Q: For `CC(C)N[C@@H]1CCC[C@@H]2c3ccccc3[C@@]21O`, which survivor count [8] is on record?
A: 0 of 6

Q: How did the T/C (dose: 7.5 mg/kg/injection, schedule: Q01DX009 (ip), vehicle: distilled water + Tween-80) turn out when `CCCCOc1ccc(-c2c(COC(=O)NC)c(COC(=O)NC)c(C)n2C)cc1` was run?
A: 137 % of control

Q: What about the T/C (dose: 15.0 mg/kg/injection, schedule: Q01DX009 (ip), vehicle: distilled water + Tween-80) of the same compound?
A: 143 and 146 % of control

Q: And the T/C (dose: 30.0 mg/kg/injection, schedule: Q01DX009 (ip), vehicle: distilled water + Tween-80)?
A: 143 and 144 % of control

Q: And the survivor count (dose: 120.0 mg/kg/injection, schedule: Q01DX009 (ip), vehicle: distilled water + Tween-80)?
A: 3 of 6 and 4 of 6
